The list shows a part of the results. Hit calls seldom repeat between salt and free forms of one compound.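 Kinases, fused to nanoluciferase, were expressed in K562 cells; luminescence was measured every 4 h from 2 to 18 h as percent of control (DMSO = 100%, positive control = 0%). A time point is decreased if signal falls significantly (2 sigma). Hits were called by the authors by a rule that is not shown; the count of time points alone does not decide it.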
Tests used:
Experiment in all cases: number of time points (of 5) at which kinase-Nluc abundance scored as decreased, DMSO-normalised (count); higher = more persistent destabilization
Conditions in all cases: K562; 2-18 h
CAMK2A = CAMK2A (UniProt Q9UQM7)
CAMK2G = CAMK2G (UniProt Q13555)
CDK10 = CDK10 (UniProt Q15131)
CDK2 = CDK2 (UniProt P24941)
CDK3 = CDK3 (UniProt Q00526)
CDK5 = CDK5 (UniProt Q00535)
CDK6 = CDK6 (UniProt Q00534)
CHEK2 = CHEK2 (UniProt O96017)
CSF1R = CSF1R (UniProt P07333)
CSK = CSK (UniProt P41240)
CSNK1A1 = CSNK1A1 (UniProt P48729)
CSNK1D = CSNK1D (UniProt P48730)
DDR1 = DDR1 (UniProt Q08345)
DYRK1B = DYRK1B (UniProt Q9Y463)
DYRK2 = DYRK2 (UniProt Q92630)
EGFR = EGFR (UniProt P00533)
EGFR_G719S = EGFR_G719S (UniProt P00533)
EGFR_G719S_T790M = EGFR_G719S_T790M (UniProt P00533)
EGFR_L718V = EGFR_L718V (UniProt P00533)
EGFR_L858R = EGFR_L858R (UniProt P00533)

Amino acid sequences for entries named in this document (tags omitted). A change or cut given only in a name is not applied to a line headed by its entry.
UniProt Q9UQM7, whole entry: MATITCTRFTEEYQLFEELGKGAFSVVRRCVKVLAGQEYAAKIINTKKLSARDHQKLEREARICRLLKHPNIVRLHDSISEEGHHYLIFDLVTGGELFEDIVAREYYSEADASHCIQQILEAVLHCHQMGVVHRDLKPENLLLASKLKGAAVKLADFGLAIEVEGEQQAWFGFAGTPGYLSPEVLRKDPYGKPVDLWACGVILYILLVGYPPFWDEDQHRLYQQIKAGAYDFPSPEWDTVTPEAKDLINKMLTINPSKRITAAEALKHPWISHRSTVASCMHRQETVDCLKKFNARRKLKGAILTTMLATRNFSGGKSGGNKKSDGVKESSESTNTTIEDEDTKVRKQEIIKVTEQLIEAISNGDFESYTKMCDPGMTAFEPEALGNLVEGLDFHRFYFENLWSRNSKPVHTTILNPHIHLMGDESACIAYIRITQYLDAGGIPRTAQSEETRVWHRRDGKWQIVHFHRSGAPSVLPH
UniProt Q13555: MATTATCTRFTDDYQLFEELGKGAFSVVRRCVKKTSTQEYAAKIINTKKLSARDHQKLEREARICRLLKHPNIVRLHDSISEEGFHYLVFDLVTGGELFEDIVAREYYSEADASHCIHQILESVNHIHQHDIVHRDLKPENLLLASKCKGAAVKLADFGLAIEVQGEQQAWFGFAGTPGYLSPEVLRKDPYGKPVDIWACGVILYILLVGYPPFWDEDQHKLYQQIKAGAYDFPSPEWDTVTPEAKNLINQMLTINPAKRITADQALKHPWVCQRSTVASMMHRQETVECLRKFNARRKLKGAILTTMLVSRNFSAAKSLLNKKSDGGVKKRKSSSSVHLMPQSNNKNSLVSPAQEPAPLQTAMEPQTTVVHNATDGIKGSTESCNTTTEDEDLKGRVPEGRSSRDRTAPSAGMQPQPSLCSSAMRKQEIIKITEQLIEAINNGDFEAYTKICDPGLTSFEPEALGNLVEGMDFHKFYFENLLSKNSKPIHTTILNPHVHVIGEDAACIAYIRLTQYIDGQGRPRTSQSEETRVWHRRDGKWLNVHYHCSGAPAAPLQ
UniProt Q15131: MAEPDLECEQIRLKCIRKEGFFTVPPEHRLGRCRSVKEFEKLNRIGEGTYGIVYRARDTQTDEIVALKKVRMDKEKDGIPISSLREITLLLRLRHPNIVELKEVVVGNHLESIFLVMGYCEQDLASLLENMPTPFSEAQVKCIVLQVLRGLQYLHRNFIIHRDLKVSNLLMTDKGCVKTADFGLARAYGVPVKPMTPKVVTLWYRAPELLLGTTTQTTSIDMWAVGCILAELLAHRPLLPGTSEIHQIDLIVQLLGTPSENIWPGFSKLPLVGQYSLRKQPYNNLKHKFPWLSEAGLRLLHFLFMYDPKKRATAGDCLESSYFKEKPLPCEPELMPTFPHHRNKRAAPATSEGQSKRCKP
UniProt Q00526: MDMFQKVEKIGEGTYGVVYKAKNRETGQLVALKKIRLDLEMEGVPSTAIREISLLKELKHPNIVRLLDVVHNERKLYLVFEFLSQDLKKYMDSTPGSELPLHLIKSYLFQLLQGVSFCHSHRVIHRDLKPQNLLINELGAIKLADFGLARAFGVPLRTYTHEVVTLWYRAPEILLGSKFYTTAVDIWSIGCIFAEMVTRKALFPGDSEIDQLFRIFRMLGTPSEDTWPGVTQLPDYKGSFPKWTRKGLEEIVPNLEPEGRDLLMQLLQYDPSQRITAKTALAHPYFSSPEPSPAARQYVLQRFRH
UniProt Q00535, whole entry, looked up: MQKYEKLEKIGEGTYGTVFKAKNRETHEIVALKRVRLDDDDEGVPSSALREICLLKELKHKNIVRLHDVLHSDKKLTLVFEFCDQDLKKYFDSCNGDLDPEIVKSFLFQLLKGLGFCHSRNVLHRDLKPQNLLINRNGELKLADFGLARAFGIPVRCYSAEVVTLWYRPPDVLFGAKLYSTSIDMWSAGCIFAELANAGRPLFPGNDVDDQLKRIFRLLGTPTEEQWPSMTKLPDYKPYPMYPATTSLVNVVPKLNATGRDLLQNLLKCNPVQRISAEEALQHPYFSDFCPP
UniProt Q00534, whole entry: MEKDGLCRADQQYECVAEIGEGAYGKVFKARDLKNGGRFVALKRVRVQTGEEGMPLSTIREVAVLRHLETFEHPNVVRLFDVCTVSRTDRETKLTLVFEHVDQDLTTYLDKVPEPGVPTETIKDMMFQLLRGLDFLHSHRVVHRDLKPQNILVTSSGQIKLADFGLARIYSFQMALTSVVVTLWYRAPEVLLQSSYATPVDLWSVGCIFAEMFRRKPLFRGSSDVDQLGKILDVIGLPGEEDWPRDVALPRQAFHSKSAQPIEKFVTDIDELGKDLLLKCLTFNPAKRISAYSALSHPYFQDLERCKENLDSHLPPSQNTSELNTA
UniProt O96017, whole entry: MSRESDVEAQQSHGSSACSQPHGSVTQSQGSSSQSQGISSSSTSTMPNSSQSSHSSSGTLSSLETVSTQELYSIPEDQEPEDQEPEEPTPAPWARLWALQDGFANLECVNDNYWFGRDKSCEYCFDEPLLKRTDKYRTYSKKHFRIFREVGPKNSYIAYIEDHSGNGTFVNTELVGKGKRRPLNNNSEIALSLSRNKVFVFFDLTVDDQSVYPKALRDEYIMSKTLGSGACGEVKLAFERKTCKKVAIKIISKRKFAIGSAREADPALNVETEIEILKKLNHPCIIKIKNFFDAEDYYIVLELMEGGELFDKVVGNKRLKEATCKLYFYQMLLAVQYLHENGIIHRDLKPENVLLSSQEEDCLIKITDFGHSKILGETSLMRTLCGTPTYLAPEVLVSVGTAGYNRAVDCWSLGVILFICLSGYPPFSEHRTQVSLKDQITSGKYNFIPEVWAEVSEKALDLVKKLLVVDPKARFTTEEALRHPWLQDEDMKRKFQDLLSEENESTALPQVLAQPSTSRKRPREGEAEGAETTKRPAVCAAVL
UniProt P07333, whole entry: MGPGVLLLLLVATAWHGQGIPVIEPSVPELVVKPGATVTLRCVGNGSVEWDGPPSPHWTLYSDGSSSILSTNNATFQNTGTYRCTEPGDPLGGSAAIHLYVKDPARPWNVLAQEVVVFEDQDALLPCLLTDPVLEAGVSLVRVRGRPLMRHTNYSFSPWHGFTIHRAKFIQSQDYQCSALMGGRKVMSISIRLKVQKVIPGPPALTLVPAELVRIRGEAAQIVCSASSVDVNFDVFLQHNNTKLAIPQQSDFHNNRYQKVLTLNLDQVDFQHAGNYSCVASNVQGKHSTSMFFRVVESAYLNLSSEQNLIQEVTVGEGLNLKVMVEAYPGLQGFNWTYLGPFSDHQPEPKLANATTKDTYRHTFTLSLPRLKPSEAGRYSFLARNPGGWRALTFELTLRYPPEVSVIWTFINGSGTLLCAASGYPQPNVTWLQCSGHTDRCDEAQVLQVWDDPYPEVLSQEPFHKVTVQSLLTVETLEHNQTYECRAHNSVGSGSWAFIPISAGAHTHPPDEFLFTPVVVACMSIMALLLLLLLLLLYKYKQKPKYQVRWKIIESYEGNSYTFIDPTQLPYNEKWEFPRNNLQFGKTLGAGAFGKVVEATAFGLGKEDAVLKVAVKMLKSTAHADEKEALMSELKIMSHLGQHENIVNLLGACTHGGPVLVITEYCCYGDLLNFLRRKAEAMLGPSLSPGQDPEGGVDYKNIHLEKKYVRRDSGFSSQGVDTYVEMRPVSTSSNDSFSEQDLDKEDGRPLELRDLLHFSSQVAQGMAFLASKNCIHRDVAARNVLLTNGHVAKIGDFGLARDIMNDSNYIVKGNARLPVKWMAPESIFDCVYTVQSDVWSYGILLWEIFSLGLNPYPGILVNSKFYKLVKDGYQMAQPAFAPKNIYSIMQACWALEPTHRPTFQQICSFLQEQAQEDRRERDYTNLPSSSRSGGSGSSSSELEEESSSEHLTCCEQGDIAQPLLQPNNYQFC
UniProt P48730: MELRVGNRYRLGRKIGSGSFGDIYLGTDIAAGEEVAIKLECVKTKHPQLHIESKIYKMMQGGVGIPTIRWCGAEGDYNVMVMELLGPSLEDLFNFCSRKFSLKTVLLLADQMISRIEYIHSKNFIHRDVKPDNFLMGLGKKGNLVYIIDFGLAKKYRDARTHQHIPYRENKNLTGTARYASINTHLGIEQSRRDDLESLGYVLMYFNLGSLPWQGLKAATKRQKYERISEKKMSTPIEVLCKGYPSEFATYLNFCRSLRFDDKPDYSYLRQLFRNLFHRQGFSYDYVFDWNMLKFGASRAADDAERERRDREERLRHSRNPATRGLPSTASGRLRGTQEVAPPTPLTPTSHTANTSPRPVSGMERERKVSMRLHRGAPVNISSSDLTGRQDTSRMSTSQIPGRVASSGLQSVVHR
UniProt Q08345: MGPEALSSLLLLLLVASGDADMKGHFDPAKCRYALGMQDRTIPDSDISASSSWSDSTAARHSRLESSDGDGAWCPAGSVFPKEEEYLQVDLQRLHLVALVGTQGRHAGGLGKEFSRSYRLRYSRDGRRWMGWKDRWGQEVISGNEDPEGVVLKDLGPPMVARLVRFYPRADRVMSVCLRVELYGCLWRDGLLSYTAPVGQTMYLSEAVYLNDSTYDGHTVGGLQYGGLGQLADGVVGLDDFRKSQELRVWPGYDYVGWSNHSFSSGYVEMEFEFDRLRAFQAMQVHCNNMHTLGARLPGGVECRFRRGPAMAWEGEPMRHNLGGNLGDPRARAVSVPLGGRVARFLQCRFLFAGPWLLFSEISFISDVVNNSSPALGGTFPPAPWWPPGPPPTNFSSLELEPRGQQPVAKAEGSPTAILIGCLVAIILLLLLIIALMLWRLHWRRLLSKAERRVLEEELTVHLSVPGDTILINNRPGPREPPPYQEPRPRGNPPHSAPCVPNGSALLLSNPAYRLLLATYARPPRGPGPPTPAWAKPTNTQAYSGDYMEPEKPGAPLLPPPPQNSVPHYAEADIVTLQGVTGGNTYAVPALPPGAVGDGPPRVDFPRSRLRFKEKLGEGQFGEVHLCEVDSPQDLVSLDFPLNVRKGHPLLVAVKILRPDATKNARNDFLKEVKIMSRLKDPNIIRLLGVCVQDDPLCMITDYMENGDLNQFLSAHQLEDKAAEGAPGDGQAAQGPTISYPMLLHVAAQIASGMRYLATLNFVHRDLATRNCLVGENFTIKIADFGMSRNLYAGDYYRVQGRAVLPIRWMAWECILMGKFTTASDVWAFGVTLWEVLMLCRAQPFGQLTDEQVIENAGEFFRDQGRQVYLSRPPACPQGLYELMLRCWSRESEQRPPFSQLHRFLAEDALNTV
UniProt Q9Y463, whole entry, looked up: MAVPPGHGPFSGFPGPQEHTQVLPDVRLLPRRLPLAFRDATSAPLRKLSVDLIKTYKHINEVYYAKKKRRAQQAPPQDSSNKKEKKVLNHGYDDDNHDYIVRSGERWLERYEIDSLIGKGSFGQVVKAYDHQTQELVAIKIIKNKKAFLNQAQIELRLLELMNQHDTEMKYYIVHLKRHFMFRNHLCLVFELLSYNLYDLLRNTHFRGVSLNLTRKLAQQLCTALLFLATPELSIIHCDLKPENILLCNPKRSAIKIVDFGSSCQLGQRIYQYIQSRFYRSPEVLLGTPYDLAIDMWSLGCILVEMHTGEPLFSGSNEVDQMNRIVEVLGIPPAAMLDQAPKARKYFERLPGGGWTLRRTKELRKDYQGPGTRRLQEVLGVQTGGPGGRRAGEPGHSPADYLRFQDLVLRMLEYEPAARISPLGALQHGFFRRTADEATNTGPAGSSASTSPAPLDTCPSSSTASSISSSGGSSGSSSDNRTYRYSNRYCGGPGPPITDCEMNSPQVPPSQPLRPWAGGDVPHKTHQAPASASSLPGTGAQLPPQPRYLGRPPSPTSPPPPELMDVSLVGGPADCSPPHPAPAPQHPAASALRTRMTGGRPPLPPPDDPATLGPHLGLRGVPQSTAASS
UniProt Q92630: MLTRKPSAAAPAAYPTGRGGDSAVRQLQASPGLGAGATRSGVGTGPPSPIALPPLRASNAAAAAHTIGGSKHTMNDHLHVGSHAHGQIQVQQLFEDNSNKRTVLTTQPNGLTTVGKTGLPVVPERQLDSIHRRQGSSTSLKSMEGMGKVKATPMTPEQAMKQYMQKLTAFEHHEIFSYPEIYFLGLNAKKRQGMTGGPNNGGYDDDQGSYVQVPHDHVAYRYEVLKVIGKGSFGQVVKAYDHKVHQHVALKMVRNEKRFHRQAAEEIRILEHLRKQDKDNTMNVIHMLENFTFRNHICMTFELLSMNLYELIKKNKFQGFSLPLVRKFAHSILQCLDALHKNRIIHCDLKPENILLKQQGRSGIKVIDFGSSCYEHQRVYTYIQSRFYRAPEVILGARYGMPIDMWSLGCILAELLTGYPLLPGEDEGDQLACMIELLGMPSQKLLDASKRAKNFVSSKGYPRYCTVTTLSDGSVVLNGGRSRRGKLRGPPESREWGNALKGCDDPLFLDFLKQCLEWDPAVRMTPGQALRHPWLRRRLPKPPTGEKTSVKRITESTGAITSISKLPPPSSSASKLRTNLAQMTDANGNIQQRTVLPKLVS

Measured: number of time points

CNc1cc(Nc2cccn(-c3ccccn3)c2=O)nn2c(C(=O)N[C@@H]3C[C@@H]3F)cnc12 (2.5 µM)
1: CDK6
0: all other assays above

Cc1cccc(-c2[nH]c(C(C)(C)C)nc2-c2ccc3nccnc3c2)n1 (10 µM)
0: all assays above

Cc1cc2sc(NC(=O)Cc3ccccc3)nc2cc1Cl (10 µM)
0: all assays above

Cn1ncc2cc(-c3cnc(N)c(Cl)c3N3CCC4(CCNC4=O)CC3)ccc21 (10 µM)
0: all assays above

Cc1cc(Nc2ncnc3ccc(-c4ccc(CNCCS(C)(=O)=O)o4)cc23)ccc1Oc1ccn2ncnc2c1 [ARRY-380 (analog )] (2.5 µM)
0: all assays above

Cn1cc(C2=C(c3cn(CCCSC(=N)N)c4ccccc34)C(=O)NC2=O)c2ccccc21 [Ro 31-8220 (mesylate)] (2.5 µM)
1: EGFR_G719S | EGFR_G719S_T790M
3: DYRK2
0: all other assays above

Oc1ccc(/C=C/c2cc(O)cc(F)c2)cc1 [Resveratrol analog 1] (10 µM)
0: all assays above

CN(c1ccc(NC(=O)Nc2ccc(OC(F)(F)F)cc2)cc1)c1ccnc(Nc2cccc(S(N)(=O)=O)c2)n1 (2.5 µM)
1: CAMK2A | CDK5 | DYRK1B | EGFR | EGFR_L858R
3: CDK10 | CSF1R | CSNK1A1 | CSNK1D | EGFR_G719S
4: DDR1 | DYRK2
2: CHEK2
0: all other assays above

CCn1c(=O)c(-c2cc[nH]n2)cc2c(C)nc(N)nc21 [Voxtalisib] (10 µM)
0: all assays above

CC(C)S(=O)(=O)c1ccc2nccc(Nc3ccc4scnc4c3)c2c1 (10 µM)
2: DYRK2
1: DDR1
0: all other assays above

O=C(O)c1cccc(CN2C(=O)/C(=C(\c3ccccc3)c3ccc(Cl)cc3)c3ccccc32)c1 (2.5 µM)
0: all assays above

Nc1ncnc2c1c(COc1cccc(Cl)c1)nn2C1CCOCC1 (10 µM)
0: all assays above

Molecules above that have an NH in an aromatic ring:
Cc1cccc(-c2[nH]c(C(C)(C)C)nc2-c2ccc3nccnc3c2)n1 (10 µM)
0: all assays above

CCn1c(=O)c(-c2cc[nH]n2)cc2c(C)nc(N)nc21 [Voxtalisib] (10 µM)
0: all assays above

The list continues.

Cc1ccn2c(C(=O)C(=O)c3ccccc3)c(-c3ccccc3)nc2c1 (10 µM)
0: all assays above

c1cc(NC2CCNCC2)nc(-c2cnc3ccccn23)c1 [IRAK inhibitor 1] (10 µM)
0: all assays above

CC(C)=CC(=O)O[C@H]1Cc2cc3ccc(=O)oc3cc2OC1(C)C [Decursin] (10 µM)
0: all assays above

O=[N+]([O-])c1ccc2c(c1)S(=O)(=O)C=C2 [Stattic] (2.5 µM)
0: all assays above

NC1=NCCN1CC(=O)O [Cyclocreatine] (10 µM)
0: all assays above

Cc1ccc(-c2csc3ncnc(SCCC(=O)O)c23)cc1 (10 µM)
0: all assays above

O=C(CNc1cccc(Cl)c1)NC1CCCN(c2ncnc3[nH]ccc23)C1 (stereo not given) (10 µM)
0: all assays above

CC(C)c1cc(/C=C(\C#N)C(=O)NCCCc2ccccc2)cc(C(C)C)c1O (10 µM)
2: EGFR_G719S_T790M
1: EGFR_L718V
0: all other assays above

Cc1ccc2c(Nc3cccc(Cl)c3F)nccc2c1NC(=O)c1csc2c(N)ncnc12 [Belvarafenib] (10 µM)
1: CSF1R
0: all other assays above

Cn1cc2cc(C(F)(F)c3nnc4ccc(-c5cnn(C6CC6)c5)nn34)c(F)cc2n1 [Bozitinib] (10 µM)
4: DDR1
2: CSF1R | EGFR_G719S_T790M
0: all other assays above

COc1nn(C)cc1Nc1nccc(-c2c[nH]c3c(NC(=O)[C@@H](C)N4CCN(C)CC4)cccc23)n1 (10 µM)
0: all assays above

O=Nc1c2[nH]c3ccccc3nc-2c2ccccc12 [IQ-1S (free acid)] (2.5 µM)
0: all assays above

CCN(CC)c1ccc2cc(-c3nc4cc(C)ccc4o3)c(=O)oc2c1 (10 µM)
2: EGFR
0: all other assays above

Cn1cc(-c2cnc3cnn(S(=O)(=O)c4cnc5ccc(-c6cnn(C)c6)cn45)c3c2)cn1 [Glumetinib] (10 µM)
0: all assays above

Nc1ncnc2c1c(-c1ccc(Oc3ccccc3)cc1)nn2C1CCN(CCOCCOCCOc2ccc3c(c2)CN(C2CCC(=O)NC2=O)C3=O)CC1 (stereo not given) (2.5 µM)
0: all assays above

O=C1/C(=C\c2ccc(Cl)cc2)C=C(c2ccccc2)N1c1ccc(O)cc1 (2.5 µM)
0: all assays above

COc1cc(/C=C/C(=O)N2CCC=CC2=O)cc(OC)c1OC [Piperlongumine] (2.5 µM)
1: EGFR_G719S_T790M
4: CHEK2
3: DDR1
0: all other assays above

CC/C(=N\NC(=O)c1ccnc(NCCCN2CCOCC2)c1)c1ccc(Cl)cc1O (2.5 µM)
0: all assays above

CCCNC(=O)Nc1ccc(Oc2ncnc3cc(OC)c(OC)cc23)cc1Cl (2.5 µM)
0: all assays above

CCCCCCCCCCCCCCCCOP(=O)([O-])OCC[N+](C)(C)C [Miltefosine] (10 µM)
0: all assays above

O=C(Nc1nc(=O)n(Cc2ccc(Cl)cc2)s1)c1ccc(Cl)cc1 (10 µM)
0: all assays above

Source: the supplement of paper PMC12823440, “Inhibitors supercharge kinase turnover through native proteolytic circuits” (Nature, 2025)
